The list shows a part of the results.
compound: C1COCCN1CCN2C3=CC=CC=C3N=C2NC(=O)C4=CC(=CC=C4)[N+](=O)[O-] [IRAK-1-4 Inhibitor I]; test: log2 fold change, soluble protein after heating vs DMSO (PISA); higher = thermal stabilisation; K562 lysate, 10 uM; active = over 0.2 and 3.5 SD of the protein, either way, in both replicates (recomputed)
How it was run: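 K562 pellets were dounce-homogenised in PBS pH 7.4 with 1 mM MgCl2, and the crude extract at 1 mg/mL protein was treated with 10 μM compound for 30 min. Aliquots were heated for 3 min across 48°C-58°C, pooled, and brought to 0.5% NP-40 at 4°C; soluble protein was the supernatant after 21,000xg for 90 min. Soluble protein was quantified by TMTpro 16plex LC-MS/MS with channel sums equalised, and reported as log2 fold change in thermal stability against DMSO controls, with values from duplicates.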

By UniProt entry, the sequences of proteins in these tests, tags left out. Where a name states a change or a piece, a line headed by the entry shows the natural chain unless it says otherwise.
UniProt P0C7M4: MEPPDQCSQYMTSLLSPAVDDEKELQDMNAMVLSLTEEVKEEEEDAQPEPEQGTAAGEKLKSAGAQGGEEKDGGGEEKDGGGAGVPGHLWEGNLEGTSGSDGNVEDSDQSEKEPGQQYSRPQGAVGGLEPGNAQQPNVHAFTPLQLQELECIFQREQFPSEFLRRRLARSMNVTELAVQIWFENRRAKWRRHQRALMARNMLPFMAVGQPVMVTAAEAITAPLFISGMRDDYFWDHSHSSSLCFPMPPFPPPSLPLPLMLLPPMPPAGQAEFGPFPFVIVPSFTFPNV
UniProt Q9ULI2: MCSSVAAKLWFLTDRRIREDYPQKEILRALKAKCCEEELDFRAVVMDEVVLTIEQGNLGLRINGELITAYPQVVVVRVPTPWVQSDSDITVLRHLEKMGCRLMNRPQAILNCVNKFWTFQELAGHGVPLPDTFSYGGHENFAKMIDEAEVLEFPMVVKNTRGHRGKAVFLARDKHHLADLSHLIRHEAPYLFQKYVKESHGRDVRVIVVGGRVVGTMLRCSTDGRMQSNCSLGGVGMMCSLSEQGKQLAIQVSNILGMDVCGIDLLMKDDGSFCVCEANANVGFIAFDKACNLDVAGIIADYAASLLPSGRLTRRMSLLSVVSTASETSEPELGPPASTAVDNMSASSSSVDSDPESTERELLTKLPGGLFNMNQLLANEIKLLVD
UniProt Q96LT9: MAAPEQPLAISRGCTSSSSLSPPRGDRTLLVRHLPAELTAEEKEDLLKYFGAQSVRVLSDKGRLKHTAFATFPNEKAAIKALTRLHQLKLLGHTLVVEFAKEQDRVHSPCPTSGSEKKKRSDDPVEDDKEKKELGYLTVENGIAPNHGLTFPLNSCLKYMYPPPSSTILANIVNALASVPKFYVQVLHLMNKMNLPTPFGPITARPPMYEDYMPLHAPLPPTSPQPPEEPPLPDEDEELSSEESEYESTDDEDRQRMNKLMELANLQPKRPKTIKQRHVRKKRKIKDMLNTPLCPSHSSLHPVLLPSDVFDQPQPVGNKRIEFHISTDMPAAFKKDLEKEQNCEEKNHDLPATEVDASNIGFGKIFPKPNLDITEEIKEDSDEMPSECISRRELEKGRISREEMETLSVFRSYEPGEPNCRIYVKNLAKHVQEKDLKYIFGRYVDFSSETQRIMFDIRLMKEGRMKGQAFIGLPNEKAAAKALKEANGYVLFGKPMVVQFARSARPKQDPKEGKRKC
UniProt P78317: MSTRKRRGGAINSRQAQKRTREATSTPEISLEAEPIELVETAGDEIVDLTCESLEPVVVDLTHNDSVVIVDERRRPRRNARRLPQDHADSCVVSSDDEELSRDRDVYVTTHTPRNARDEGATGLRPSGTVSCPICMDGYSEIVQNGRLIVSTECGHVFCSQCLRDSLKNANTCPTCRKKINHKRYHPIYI
UniProt Q9GZN7, whole entry, looked up: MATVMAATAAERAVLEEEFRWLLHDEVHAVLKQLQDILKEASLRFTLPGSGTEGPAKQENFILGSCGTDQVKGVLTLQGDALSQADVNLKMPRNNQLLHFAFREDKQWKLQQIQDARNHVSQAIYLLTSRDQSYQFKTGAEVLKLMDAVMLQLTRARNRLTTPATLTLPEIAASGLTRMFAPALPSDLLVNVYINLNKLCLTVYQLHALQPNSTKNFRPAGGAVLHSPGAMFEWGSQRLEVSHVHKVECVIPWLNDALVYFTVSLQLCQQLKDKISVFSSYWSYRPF
UniProt Q9H9Y2: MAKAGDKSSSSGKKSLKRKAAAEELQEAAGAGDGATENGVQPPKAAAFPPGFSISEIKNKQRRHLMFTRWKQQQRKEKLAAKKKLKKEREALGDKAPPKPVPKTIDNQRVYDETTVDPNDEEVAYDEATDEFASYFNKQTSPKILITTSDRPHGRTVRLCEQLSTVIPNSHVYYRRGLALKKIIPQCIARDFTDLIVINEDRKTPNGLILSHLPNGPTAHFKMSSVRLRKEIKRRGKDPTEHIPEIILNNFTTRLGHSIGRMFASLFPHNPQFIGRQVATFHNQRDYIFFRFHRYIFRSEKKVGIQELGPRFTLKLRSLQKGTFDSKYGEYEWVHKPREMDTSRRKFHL
UniProt Q969X0: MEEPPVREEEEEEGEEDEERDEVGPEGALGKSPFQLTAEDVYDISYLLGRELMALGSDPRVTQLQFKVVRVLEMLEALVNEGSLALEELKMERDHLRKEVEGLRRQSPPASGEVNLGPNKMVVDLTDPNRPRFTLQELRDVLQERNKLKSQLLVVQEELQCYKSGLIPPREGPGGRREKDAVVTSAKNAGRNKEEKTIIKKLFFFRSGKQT
UniProt Q9H920: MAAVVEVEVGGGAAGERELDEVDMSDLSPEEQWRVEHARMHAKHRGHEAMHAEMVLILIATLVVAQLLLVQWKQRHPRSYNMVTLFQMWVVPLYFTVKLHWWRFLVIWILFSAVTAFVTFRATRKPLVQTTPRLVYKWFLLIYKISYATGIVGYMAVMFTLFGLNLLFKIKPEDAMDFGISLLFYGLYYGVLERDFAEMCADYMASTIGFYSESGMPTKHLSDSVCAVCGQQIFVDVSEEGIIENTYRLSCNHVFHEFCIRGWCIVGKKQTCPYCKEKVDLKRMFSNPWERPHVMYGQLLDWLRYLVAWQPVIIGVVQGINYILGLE
UniProt Q99942: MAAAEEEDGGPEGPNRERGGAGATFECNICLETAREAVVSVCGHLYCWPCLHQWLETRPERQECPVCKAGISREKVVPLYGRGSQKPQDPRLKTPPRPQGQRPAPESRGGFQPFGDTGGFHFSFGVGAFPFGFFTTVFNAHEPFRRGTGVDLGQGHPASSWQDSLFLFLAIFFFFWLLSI
UniProt P08922: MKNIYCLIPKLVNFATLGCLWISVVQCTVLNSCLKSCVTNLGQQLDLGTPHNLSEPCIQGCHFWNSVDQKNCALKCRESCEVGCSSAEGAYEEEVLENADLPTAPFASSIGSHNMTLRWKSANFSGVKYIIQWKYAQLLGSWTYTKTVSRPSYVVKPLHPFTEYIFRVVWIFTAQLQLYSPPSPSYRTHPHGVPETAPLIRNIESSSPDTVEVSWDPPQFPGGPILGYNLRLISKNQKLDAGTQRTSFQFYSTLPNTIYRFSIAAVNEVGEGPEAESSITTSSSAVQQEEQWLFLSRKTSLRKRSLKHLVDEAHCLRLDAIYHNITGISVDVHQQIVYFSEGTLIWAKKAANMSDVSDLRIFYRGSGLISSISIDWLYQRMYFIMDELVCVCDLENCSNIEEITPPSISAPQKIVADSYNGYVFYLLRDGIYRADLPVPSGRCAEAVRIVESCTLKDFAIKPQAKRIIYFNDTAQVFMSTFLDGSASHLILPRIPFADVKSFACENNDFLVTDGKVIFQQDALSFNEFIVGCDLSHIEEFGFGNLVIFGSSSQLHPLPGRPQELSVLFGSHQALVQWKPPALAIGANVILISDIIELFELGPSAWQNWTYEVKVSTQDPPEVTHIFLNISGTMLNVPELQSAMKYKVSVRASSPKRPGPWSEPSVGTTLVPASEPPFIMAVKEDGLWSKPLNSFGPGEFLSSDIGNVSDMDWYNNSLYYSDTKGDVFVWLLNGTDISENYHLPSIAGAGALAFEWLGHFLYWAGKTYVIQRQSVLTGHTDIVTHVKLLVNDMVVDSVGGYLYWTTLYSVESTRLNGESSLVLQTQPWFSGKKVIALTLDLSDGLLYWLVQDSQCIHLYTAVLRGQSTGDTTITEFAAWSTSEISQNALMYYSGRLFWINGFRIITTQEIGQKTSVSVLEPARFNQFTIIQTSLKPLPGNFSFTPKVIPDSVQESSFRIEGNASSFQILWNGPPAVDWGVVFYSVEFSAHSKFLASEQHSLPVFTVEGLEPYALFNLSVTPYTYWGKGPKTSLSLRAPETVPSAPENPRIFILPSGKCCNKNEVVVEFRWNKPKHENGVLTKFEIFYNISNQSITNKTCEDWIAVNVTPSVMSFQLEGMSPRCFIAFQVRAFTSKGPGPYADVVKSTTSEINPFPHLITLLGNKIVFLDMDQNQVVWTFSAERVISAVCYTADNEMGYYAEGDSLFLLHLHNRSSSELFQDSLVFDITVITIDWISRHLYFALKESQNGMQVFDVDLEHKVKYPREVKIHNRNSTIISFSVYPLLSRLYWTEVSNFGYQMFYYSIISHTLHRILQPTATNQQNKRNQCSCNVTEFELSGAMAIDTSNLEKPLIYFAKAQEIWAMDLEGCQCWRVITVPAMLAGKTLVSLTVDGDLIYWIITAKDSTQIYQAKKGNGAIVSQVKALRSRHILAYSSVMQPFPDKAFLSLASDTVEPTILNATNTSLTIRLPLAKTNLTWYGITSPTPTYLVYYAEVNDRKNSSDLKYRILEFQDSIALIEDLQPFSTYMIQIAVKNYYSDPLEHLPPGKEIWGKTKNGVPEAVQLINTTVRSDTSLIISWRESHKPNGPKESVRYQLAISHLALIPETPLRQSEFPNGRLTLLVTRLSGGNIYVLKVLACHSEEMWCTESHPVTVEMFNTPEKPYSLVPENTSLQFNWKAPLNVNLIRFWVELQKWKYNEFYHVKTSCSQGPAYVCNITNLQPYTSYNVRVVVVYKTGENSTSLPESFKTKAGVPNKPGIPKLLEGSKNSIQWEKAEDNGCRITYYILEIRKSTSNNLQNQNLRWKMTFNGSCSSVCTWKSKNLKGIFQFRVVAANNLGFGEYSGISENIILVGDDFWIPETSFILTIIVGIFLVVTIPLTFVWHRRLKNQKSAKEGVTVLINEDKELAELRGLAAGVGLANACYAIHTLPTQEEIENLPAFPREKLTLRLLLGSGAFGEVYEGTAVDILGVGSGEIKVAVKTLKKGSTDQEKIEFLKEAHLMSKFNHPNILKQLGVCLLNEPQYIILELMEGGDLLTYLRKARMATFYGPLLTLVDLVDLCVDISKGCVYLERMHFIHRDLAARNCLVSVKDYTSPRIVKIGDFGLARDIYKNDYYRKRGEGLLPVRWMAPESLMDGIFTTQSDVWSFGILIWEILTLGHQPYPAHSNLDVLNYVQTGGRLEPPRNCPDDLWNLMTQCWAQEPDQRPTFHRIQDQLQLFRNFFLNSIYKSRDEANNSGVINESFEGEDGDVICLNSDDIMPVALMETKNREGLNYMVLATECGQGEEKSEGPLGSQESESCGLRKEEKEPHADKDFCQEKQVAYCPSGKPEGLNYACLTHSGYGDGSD
UniProt Q9H4P4: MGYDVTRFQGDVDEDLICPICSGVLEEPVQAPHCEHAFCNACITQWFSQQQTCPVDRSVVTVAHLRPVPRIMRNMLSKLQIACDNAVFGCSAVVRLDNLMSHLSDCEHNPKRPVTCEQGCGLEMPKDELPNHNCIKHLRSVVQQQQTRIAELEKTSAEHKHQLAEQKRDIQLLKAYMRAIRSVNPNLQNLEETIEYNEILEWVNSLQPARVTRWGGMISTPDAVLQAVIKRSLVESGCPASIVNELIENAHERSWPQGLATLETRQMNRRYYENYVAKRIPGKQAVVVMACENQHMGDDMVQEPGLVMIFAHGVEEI
UniProt Q8IUC4: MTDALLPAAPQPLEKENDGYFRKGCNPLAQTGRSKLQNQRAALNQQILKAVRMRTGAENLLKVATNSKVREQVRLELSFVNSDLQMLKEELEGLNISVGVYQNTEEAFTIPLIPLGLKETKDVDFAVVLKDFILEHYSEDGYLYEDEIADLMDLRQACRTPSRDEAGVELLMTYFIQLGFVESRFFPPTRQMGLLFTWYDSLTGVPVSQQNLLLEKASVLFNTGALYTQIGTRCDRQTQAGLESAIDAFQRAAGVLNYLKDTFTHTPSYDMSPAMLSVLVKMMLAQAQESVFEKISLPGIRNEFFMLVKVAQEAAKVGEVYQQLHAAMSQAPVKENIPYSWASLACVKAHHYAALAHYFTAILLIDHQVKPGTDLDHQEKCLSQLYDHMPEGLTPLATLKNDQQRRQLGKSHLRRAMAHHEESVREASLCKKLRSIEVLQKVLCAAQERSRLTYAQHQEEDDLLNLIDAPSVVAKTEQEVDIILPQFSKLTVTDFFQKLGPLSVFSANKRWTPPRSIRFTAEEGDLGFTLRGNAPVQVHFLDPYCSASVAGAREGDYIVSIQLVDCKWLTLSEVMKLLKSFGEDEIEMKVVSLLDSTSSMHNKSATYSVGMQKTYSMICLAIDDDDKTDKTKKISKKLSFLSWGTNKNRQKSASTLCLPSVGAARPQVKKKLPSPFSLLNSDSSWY
UniProt Q8WVD3: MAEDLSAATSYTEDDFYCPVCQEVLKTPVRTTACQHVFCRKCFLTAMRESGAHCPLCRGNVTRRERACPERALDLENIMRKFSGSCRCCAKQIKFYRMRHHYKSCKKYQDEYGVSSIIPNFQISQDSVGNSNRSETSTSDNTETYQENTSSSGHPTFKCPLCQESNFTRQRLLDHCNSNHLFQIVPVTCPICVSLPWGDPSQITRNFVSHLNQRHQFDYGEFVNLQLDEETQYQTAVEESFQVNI

log2 fold change, inactive:
RHOXF2B (UniProt P0C7M4) 0.07
RIMKLB (UniProt Q9ULI2) -0.024
RNPC3 (UniProt Q96LT9) 0.076
RNF4 (UniProt P78317) -0.14
RNF8 (UniProt O76064) -0.044
ROGDI (UniProt Q9GZN7) -0.122
RPL22L1 (UniProt Q6P5R6) 0.179
RINL (UniProt Q6ZS11) 0.035
RPF1 (UniProt Q9H9Y2) 0.065
RNPEPL1 (UniProt Q9HAU8) 0.014
ROBO2 isoform 3 (UniProt Q9HCK4) -0.062
RILPL2 (UniProt Q969X0) -0.005
RNFT1 (UniProt Q5M7Z0) -0.001
RNF121 (UniProt Q9H920) -0.049
RNF17 (UniProt Q9BXT8) 0.055
RNF5 (UniProt Q99942) -0.047
ROS1 (UniProt P08922) 0.072
RNF169 (UniProt Q8NCN4) 0.021
RNF41 (UniProt Q9H4P4) -0.317
RHPN2 (UniProt Q8IUC4) -0.098
RPL10, A0A087WV22 -0.052
RNF138 (UniProt Q8WVD3) 0.025

Quoted at random: two records from the list, in no set order.
log2 fold change, inactive:
RNFT1 (UniProt Q5M7Z0) -0.001
RHOXF2B (UniProt P0C7M4) 0.07
